Reference: paper PMC5235370
No constants are given. Whether binding was seen depends on the method and setting. In cells and extracts the contact can be indirect. Some results given as binding are weak or reduced against the parent protein; the word gives no strength. Where a sequence is shown, tags or fusion partners need not be part of it.

Chains of the proteins cited; added tags and fusions are not shown.
UniProt Q07817: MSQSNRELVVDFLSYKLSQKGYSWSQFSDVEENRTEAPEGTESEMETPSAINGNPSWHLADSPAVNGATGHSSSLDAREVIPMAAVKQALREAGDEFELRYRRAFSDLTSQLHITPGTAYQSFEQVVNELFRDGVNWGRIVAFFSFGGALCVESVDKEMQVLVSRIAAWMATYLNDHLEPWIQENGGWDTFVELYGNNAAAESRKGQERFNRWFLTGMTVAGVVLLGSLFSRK

Molecular target: FLAG-Bcl-xL (human) (UniProt Q07817)
Assay: co-IP; HEK293T cells co-transfected with the FLAG- and EmGFP-tagged proteins; nutrient-rich or starvation conditions for 2 h, or GAS infection for 4 h; lysis in 50 mM Tris-HCl pH 7.5, 150 mM NaCl, 1% Triton X-100; anti-FLAG antibody and Protein G Sepharose at 4°C; immunoblot with anti-GFP

- binding: binds
B1: EmGFP-UVRAG (protein, UniProt Q9P2Y5-1 1-699)
chain: MSASASVGGPVPQPPPGPAAALPPGSAARALHVELPSQQRRLRHLRNIAARNIVNRNGHQLLDTYFTLHLCSTEKIYKEFYRSEVIKNSLNPTWRSLDFGIMPDRLDTSVSCFVVKIWGGKENIYQLLIEWKVCLDGLKYLGQQIHARNQNEIIFGLNDGYYGAPFEHKGYSNAQKTILLQVDQNCVRNSYDVFSLLRLHRAQCAIKQTQVTVQKIGKEIEEKLRLTSTSNELKKKSECLQLKILVLQNELERQKKALGREVALLHKQQIALQDKGSAFSAEHLKLQLQKESLNELRKECTAKRELFLKTNAQLTIRCRQLLSELSYIYPIDLNEHKDYFVCGVKLPNSEDFQAKDDGSIAVALGYTAHLVSMISFFLQVPLRYPIIHKGSRSTIKDNINDKLTEKEREFPLYPKGGEKLQFDYGVYLLNKNIAQLRYQHGLGTPDLRQTLPNLKNFMEHGLMVRCDRHHTSSAIPVPKRQSSIFGGADVGFSGGIPSPDKGHRKRASSENERLQYKTPPPSYNSALAQPVTTVPSMGETERKITSLSSSLDTSLDFSKENKKKGEDLVGSLNGGHANVHPSQEQGEALSGHRATVNGTLLPSEQAGSASVQLPGEFHPVSEAELCCTVEQAEEIIGLEATGFASGDQLEAFNCIPVDSAVAVECDEQVLGEFEEFSRRIYALNENVSSFRRPRRSSDK
